Assay results published in patent publication US20150209403A1, “Dose Adjustment” (AbbVie Inc., priority 2014, published 2015).
Some entries share one result that the patent states for a list of compounds.

Test: Drug interaction study of 3D or 2D regimen with omeprazole
Type: in vivo, human
Details: 3D and 2D regimens with omeprazole 40 mg, healthy volunteers
Protocol: In 24 healthy volunteers omeprazole (40 mg) were administered on day 1 and days 20-24. The 3D or 2D regimen (Compound 1/r 150/100 mg QD+ombitasvir 25 mg QD±dasabuvir 250 mg BID) was administered on days 6-24. Intensive PK sampling was performed for study drugs when dosed alone and during coadministration and parameters estimated by noncompartmental analyses. Safety was evaluated through assessment of adverse events, vital signs, ECG and clinical laboratory tests.

Structure (SMILES) | Cmax, AUC or Ctrough, % change
COC(=O)N[C@H](C(=O)N1CCC[C@H]1C(=O)Nc1ccc([C@@H]2CC[C@@H](c3ccc(NC(=O)[C@@H]4CCCN4C(=O)[C@@H](NC(=O)OC)C(C)C)cc3)N2c2ccc(C(C)(C)C)cc2)cc1)C(C)C [Compound 3] | < 20%
CC(C)c1nc(CN(C)C(=O)N[C@H](C(=O)N[C@@H](Cc2ccccc2)C[C@H](O)[C@H](Cc2ccccc2)NC(=O)OCc2cncs2)C(C)C)cs1 [ritonavir] | < 20%
